Measurements from PubChem BioAssay AID819 (Columbia University Molecular Screening Center, 2007).
The list shows a part of the results.

Experiment: enhancers of NFkB p65 translocation in HUVEC – imaging, IL-1B stimulus, high-content imaging, primary screen (AID 819)
Settings: HUVEC IL-1B NFkB p65 nuclear translocation imaging; cells passing quality filter; at 2 µM; stronger effect = lower value

Structure (SMILES) | cell count
Cc1nn(-c2ccccc2)c2c1P(=O)(N1CCOCC1)N(C)C(c1ccccc1)=N2 (stereo unspecified) | 148
COc1ccccc1OP(C)(=O)Nc1c(C)cccc1C (stereo unspecified) | 168
O=P1(Nc2ncccn2)COc2ccccc2OC1 | 115
Cc1ccc(OCC(=O)OC2CN3CCC2CC3)cc1 (stereo unspecified) | 150
O=P1(Nc2ccc(Br)cn2)COc2ccccc2OC1 | 100
O=P1(Nc2ccccn2)COc2ccccc2OC1 | 133
Clc1n[nH]nc1-c1nn[nH][15n]1 | 85
Cc1nc2ccc3ccccc3c2s1.O=[N+]([O-])c1cc([N+](=O)[O-])c(O)c([N+](=O)[O-])c1 | 137
CC1(CBr)Cn2c(nc3ccccc3c2=O)S1 (stereo unspecified) | 80
Cc1cccc(OCC(=O)OC2CN3CCC2CC3)c1 (stereo unspecified) | 64
Cc1cc(C)cc(OP(C)(=O)Nc2ccccn2)c1 (stereo unspecified) | 116
Cc1ccc(C)c(NP(C)(=O)Oc2ccccc2)c1 (stereo unspecified) | 120
CCOP1(=S)c2c(C)nn(CCC#N)c2N=C(c2ccccc2F)N1C (stereo unspecified) | 140
CCOP1(=S)c2c(C)nn(CCC#N)c2N=C(c2ccc(F)cc2)N1C (stereo unspecified) | 181
O=[N+]([O-])c1ccc2c(c1)nnn2O | 168
ClCCSc1nnc(-c2cccnc2)o1 | 158
COc1ccc(OP(C)(=O)Nc2cccc(F)c2)cc1 (stereo unspecified) | 169
CCN(CC)C(=S)SC(NC=O)C(Cl)(Cl)Cl (stereo unspecified) | 210
O=C(OC1CN2CCC1CC2)C12CC3CC(CC(C3)C1)C2 (stereo unspecified) | 101
COP1(=S)c2c(C)nn(CCC#N)c2N=C(c2ccc(F)cc2)N1C (stereo unspecified) | 168
CP(=O)(NC(=O)Nc1ccccc1)Oc1ccccc1 (stereo unspecified) | 159

Structure (SMILES) | cell count
O=C(COc1ccccc1)OC1CN2CCC1CC2 (stereo unspecified) | 171
CCC(C)N(CC(C)C)C(=S)SC(NC(C)=O)C(Cl)(Cl)Cl (stereo unspecified) | 131
CP(=O)(Nc1ccccn1)Oc1ccc(Cl)cc1 (stereo unspecified) | 194
CP(=S)(Nn1cnnc1)Oc1ccccc1 (stereo unspecified) | 158
CP(=O)(OC12CC3CC(CC(C3)C1)C2)OC12CC3CC(CC(C3)C1)C2 | 161
CCN(CC)CC(O)COC(=O)C(O)(c1ccccc1)C1CCCCC1 (stereo unspecified) | 121
CCc1nc2c(n1)c1c(non1O)c1c2no[n+]1[O-] | 86
CP(=O)(Oc1ccccc1)N1CCOC1=O (stereo unspecified) | 185
CC(=O)N1C2C3N(C(C)=O)C1C1N(C(C)=O)C(C(N1C(C)=O)N3C(C)=O)N2C(C)=O | 175
O=[N+]([O-])c1cccc2n[nH]nc12 | 114
COc1ccccc1OP(C)(=O)Nc1c(C)n(C)n(-c2ccccc2)c1=O (stereo unspecified) | 137
CP(=O)(Nc1ccc(Cl)cc1)Oc1ccc(F)cc1 (stereo unspecified) | 70
CC(C)(C)c1ccc(OP(C)(=O)O)cc1 | 191
CC1CCN(C(=O)Oc2c(Cl)cc(Cl)c3cccnc23)CC1 | 148
CN1CCCC(OC(=O)C(c2ccccc2)c2ccccc2)C1 (stereo unspecified) | 202
CN(C)CCOC(=O)C(O)(c1ccccc1)C1CCCC1 (stereo unspecified) | 199
COc1ccc(OP(C)(=O)Nc2ccccn2)cc1 (stereo unspecified) | 194
Cc1c2non([O-])c-2c(C)[n+](=O)[n+]1[O-] | 217
Oc1ccccc1CNc1ccccn1 | 161
Cc1c(NP(C)(=O)Oc2ccc(C(C)C)cc2)c(=O)n(-c2ccccc2)n1C (stereo unspecified) | 150
CC(C)CC(=O)NC(Sc1ccc(Cl)cc1)C(Cl)(Cl)Cl (stereo unspecified) | 102

Structure (SMILES) | cell count
CCc1ccc(OP(C)(=O)O)cc1 | 66
COc1ccccc1OP(C)(=O)Nc1ccc(C)cc1C (stereo unspecified) | 121
CP(=O)(Nc1ccccn1)Oc1ccccc1 (stereo unspecified) | 179
COc1ccccc1OP(C)(=O)Nc1ccc(C)c(C)c1 (stereo unspecified) | 184
CCOP(=O)(Nc1ccccc1)OCC | 165
Cc1nc2ccc3ccccc3c2o1.O=[N+]([O-])c1cc([N+](=O)[O-])c(O)c([N+](=O)[O-])c1 | 184
CCOC(=O)NC(Sc1ccccc1)C(Cl)(Cl)Cl (stereo unspecified) | 124
CCC(=O)N1C2C3N(C(=O)CC)C1C1N(C(=O)CC)C(C(N1C(=O)CC)N3C(=O)CC)N2C(=O)CC | 189
CCN(CC)CCCOC(=O)C(O)(c1ccccc1)C1CCCCC1 (stereo unspecified) | 94
COC(=O)c1cc2c(s1)N=C(c1ccccc1)N(C)P2(=O)N1CCOCC1 (stereo unspecified) | 86
CP(=O)(Nc1ccccc1)Oc1ccc(F)cc1 (stereo unspecified) | 49
O=P1(Nc2nc3ccc(Cl)cc3s2)COc2ccccc2O1 (stereo unspecified) | 88
CP(=O)(Nc1ccccc1F)Oc1ccccc1 (stereo unspecified) | 187
O=P(Nc1nccs1)(c1ccccc1)c1ccccc1 | 199
c1nnnn1CCn1cnnn1 | 196
CCOP(C)(=S)SCC(=O)NC(C)(CC)C(=O)O (stereo unspecified) | 155
CP(=O)(Nc1ccc2c(c1)OCCO2)Oc1ccccc1 (stereo unspecified) | 125
CN(C)CCOC(=O)C(O)(c1ccccc1)C1CCCCC1 (stereo unspecified) | 121
O=C(OC1CN2CCC1CC2)c1cccc(Cl)c1 (stereo unspecified) | 147
